Results from paper PMC7862700.
This is a selection; strong and weak results do not stand in their true shares. At the low end of the ranking the order means little.

The chains behind the UniProt entries cited, without tags or fusion partners. Where a name states a change or a piece, a line headed by the entry shows the natural chain unless it says otherwise.
UniProt O43186: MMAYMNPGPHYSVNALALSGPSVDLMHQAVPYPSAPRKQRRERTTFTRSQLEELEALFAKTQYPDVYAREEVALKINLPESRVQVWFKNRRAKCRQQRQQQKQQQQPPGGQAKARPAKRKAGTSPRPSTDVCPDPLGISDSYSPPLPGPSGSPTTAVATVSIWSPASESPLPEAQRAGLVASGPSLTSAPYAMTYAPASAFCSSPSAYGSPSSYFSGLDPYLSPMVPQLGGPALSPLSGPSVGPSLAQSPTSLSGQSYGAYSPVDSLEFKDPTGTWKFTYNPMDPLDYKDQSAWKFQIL

Assays:
Test in all cases: DAPPL (digital affinity profiling via proximity ligation, sequencing)
Details in all cases: 10 mM Tris-HCl pH 7.5, 50 mM NaCl, 1 mM DTT, 4% glycerol, room temperature, 30 min; GST-TFs on glutathione beads, 16-mer random dsDNA library, 0.1% …; high values mean tight binding; double strand, one strand shown; scale: fold enrichment (6-mer frequency, TF over GST control)
FEV = biological target: T1, FEV (UniProt Q99581)
T1 sequence: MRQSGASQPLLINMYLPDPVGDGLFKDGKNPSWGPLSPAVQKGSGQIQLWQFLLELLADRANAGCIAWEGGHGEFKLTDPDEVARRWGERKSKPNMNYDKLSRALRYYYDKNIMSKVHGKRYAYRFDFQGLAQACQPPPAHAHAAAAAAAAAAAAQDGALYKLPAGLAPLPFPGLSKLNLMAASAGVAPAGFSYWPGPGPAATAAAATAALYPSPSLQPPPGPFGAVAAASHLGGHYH

CRX = CRX (UniProt O43186)
ELF5 = biological target: T2, ELF5 (UniProt Q9UKW6-2)
T2 sequence: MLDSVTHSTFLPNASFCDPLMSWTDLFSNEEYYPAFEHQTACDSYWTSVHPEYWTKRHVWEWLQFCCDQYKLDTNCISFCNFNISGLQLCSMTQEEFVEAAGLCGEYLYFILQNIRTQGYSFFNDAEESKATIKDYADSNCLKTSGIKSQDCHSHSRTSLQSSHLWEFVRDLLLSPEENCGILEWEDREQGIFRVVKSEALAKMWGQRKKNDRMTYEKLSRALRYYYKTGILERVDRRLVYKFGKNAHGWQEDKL

AGGCGG
binding signal (FEV): 0.226
binding signal (CRX): 0.205
binding signal (ELF5): 0.255

GCGAGA
binding signal (FEV): 0.472
binding signal (CRX): 0.554
binding signal (ELF5): 0.488

GGTAGT
binding signal (FEV): 0.676
binding signal (CRX): 0.522
binding signal (ELF5): 0.799

TGTAGT
binding signal (FEV): 0.822
binding signal (CRX): 0.736
binding signal (ELF5): 0.917

GTCAGT
binding signal (FEV): 0.611
binding signal (CRX): 0.45
binding signal (ELF5): 0.554

GACGAA
binding signal (FEV): 0.863
binding signal (CRX): 0.752
binding signal (ELF5): 0.856

CCGAGA
binding signal (FEV): 0.629
binding signal (CRX): 0.635
binding signal (ELF5): 0.602

GGCCCG
binding signal (FEV): 0.803
binding signal (CRX): 0.516
binding signal (ELF5): 0.694

GTTGTG
binding signal (FEV): 0.832
binding signal (CRX): 0.665
binding signal (ELF5): 0.847

ACAGGT
binding signal (FEV): 0.754
binding signal (CRX): 0.603
binding signal (ELF5): 0.79

TGGAGA
binding signal (FEV): 0.397
binding signal (CRX): 0.434
binding signal (ELF5): 0.38

CGGTGA
binding signal (FEV): 0.509
binding signal (CRX): 0.33
binding signal (ELF5): 0.406

AGACCA
binding signal (FEV): 0.66
binding signal (CRX): 0.59
binding signal (ELF5): 0.63

GGGTGA
binding signal (FEV): 0.617
binding signal (CRX): 0.497
binding signal (ELF5): 0.623

GTCCGT
binding signal (FEV): 0.504
binding signal (CRX): 0.372
binding signal (ELF5): 0.536

CAGCCG
binding signal (FEV): 0.717
binding signal (CRX): 0.535
binding signal (ELF5): 0.635

AGTGTG
binding signal (FEV): 0.641
binding signal (CRX): 0.554
binding signal (ELF5): 0.697

TAGGAC
binding signal (FEV): 0.851
binding signal (CRX): 0.907
binding signal (ELF5): 0.833

TGGAGG
binding signal (FEV): 0.474
binding signal (CRX): 0.471
binding signal (ELF5): 0.486

CCAGGC
binding signal (FEV): 0.401
binding signal (CRX): 0.372
binding signal (ELF5): 0.402

CGCATT
binding signal (FEV): 0.742
binding signal (CRX): 0.906
binding signal (ELF5): 0.774

GGGCAG
binding signal (FEV): 0.596
binding signal (CRX): 0.437
binding signal (ELF5): 0.588

GACGGA
binding signal (FEV): 0.543
binding signal (CRX): 0.405
binding signal (ELF5): 0.57

TGCCAG
binding signal (FEV): 0.7
binding signal (CRX): 0.671
binding signal (ELF5): 0.645

GACAGG
binding signal (FEV): 0.591
binding signal (CRX): 0.414
binding signal (ELF5): 0.575

GCGCGA
binding signal (FEV): 0.666
binding signal (CRX): 0.619
binding signal (ELF5): 0.619

CGCAGC
binding signal (FEV): 0.828
binding signal (CRX): 0.617
binding signal (ELF5): 0.739

GACGAT
binding signal (FEV): 0.869
binding signal (CRX): 0.968
binding signal (ELF5): 0.875

GAGTAC
binding signal (FEV): 0.527
binding signal (CRX): 0.433
binding signal (ELF5): 0.537

GCGGGA
binding signal (FEV): 0.367
binding signal (CRX): 0.322
binding signal (ELF5): 0.371

AGTGGG
binding signal (FEV): 0.649
binding signal (CRX): 0.469
binding signal (ELF5): 0.657

GGCGAA
binding signal (FEV): 0.712
binding signal (CRX): 0.565
binding signal (ELF5): 0.678

GTCAGG
binding signal (FEV): 0.498
binding signal (CRX): 0.388
binding signal (ELF5): 0.551

ACGGAG
binding signal (FEV): 0.338
binding signal (CRX): 0.302
binding signal (ELF5): 0.354
